Data taken from ChEMBL document CHEMBL3988442, “University of Dundee, Small-Polar-MMV Screening Library” (2021).

Sequences of proteins named here, by UniProt entry; tags and fusion partners are left off.
UniProt E9BF75, entry or part of it: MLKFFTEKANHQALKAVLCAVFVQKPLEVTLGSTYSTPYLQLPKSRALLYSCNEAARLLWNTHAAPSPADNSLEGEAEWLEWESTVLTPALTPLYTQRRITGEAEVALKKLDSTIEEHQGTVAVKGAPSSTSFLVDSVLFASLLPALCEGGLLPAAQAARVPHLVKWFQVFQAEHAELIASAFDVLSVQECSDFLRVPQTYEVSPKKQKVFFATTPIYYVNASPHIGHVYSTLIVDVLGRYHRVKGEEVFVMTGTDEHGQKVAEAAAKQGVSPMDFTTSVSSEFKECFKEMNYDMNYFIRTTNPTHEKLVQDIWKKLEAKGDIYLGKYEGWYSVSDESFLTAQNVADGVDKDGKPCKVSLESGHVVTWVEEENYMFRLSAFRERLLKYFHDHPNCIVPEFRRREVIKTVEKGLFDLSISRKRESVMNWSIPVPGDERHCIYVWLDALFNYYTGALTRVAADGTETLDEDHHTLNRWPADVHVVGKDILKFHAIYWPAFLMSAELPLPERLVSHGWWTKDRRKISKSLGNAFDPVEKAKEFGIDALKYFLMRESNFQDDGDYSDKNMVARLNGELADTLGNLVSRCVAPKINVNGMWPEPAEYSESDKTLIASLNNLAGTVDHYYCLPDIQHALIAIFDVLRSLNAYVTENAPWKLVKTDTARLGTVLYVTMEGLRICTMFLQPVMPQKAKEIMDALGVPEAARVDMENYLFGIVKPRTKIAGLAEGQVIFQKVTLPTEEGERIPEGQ

Results are percentages, as filed. The controls that fix the scale are not given in the record; negative values are as filed. Compounds were drawn at random from those tested, without regard to their results. A dash means the value is not listed here; it may have been measured.

A: 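Methionyl-tRNA synthetase (putative), Leishmania donovani (UniProt E9BF75). Primary screen of methionyl-tRNA synthetase; the read-out is not stated. The test concentration is not given. The values are filed as inhibition. Of about 68,000 compounds tested this way, about 24 (0.035%) reached 50% or more in at least one test.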
B: 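Assay on Mycobacterium tuberculosis, filed only as a heat shock assay from Cornell; the read-out is not stated. The concentration is filed as 10 mM, unlikely as a test dose, so the dose is not known. Higher reads as stronger inhibition (inferred: compounds with an IC50 in retests scored well above the rest). Size under these conditions: about 69,000 compounds, about 930 of them at 50% or above in at least one test.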

SMILES,A,B
Cc1cc(=O)[nH]c(-n2nc(C3CC3)cc2N)n1,10.63,101
O=C(Nc1cc(F)ccc1OCC1CCCO1)NC1CC1 (configuration not stated),17.61,-1.03
COc1cccc(OC)c1C(=O)NCC(c1cccn1C)N1CCCC1 (configuration not stated),17.44,-10.59
Cc1ccc2nc(C3CCCN3C(=O)c3cc(=O)[nH]c(=O)[nH]3)[nH]c2c1 (configuration not stated),5.949,-9.691
Cc1nc(C(=O)N2CCN(C(=O)N(C)C)[C@@H]3CS(=O)(=O)C[C@@H]32)cs1,11.17,-
O=C(COCc1nc(-c2ccncc2)no1)NC1CCCCC1,14.96,-12.05
Cc1oc(C)c(C(=O)NCc2cccnc2)c1C,12.63,0.4906
O=C1COC2(CCN(c3ncccn3)CC2)CN1,8.029,-
COc1cc(CNCc2ccnc(N3CCCC3)c2)cc(OC)c1.Cl,-,5.029
Cc1ccccc1CNC(=O)N1C[C@H]2C[C@H](C(=O)N(C)C)[C@@H](C1)O2,8.029,-
O=C(c1ccco1)N1CCC2(CCOC2)C1 (configuration not stated),5.394,23.19
Cc1cc(N2CCC(O)(CN(C)C)C2)c2cc3c(cc2n1)OCO3 (configuration not stated),1.529,-11.46
CCC(C)NC(=O)c1snnc1-c1ccc(OC)cc1 (configuration not stated),-5.721,15.46
c1cn2c(n1)CN(C1CCOCC1)CC(CN1CCCC1)C2 (configuration not stated),6.383,-
COCC1CN(Cc2ccc(C)o2)Cc2nnn(CC3CC3)c21 (configuration not stated),3.937,-
CN(C)CC(=O)N1Cc2nc(C(=O)NCc3ccccc3)oc2C1,-1.587,-14.87
Cc1ccnc(N2CCC(=O)N(Cc3ccc(F)cc3)C(C(C)C)C2)n1 (configuration not stated),5.914,-0.3517
CNC(=O)c1nn(C)cc1NC(=O)C(C)n1ncc(Cl)c1C (configuration not stated),2.611,-0.4548
c1ccc(-c2nccc(CNCC3CCCN3c3cccnn3)n2)cc1 (configuration not stated),14.29,36.4
CC(NC(=O)N(C)Cc1ccc2c(c1)OCCO2)c1nncn1C (configuration not stated),13.11,3.06
CCN(Cc1cnc(NCc2ccccc2)nc1)C1CCS(=O)(=O)C1 (configuration not stated),12.32,19.69
CCN(Cc1ccoc1)C(C(N)=O)c1cccc(Br)c1 (configuration not stated),11.81,-6.105
Cn1cc(C(=O)NCc2cn3c(n2)CN(CC2CCOC2)CC3)cn1.O=C(O)C(F)(F)F.O=C(O)C(F)(F)F (configuration not stated),-,-28.66
CCn1ncc2c1C(COCC1CC1)CN(c1ccc(C)nn1)C2.O=C(O)C(F)(F)F.O=C(O)C(F)(F)F (configuration not stated),-,28.05
O=C(O)C(F)(F)F.O=C(O)C(F)(F)F.O[C@@H]1CCN(CC2CCOC2)[C@H]1Cc1cccnc1 (some centres not stated),-,-6.085
CCN(CCNC(=O)C1CCCN(C(C)=O)C1)c1ccccc1C (configuration not stated),10.89,-7.563
Cc1nccn1CCC1CCNCC1,7.143,-
COCc1cc(CNCc2c(C)n(CC(N)=O)c3ccccc23)n[nH]1,12.23,5.012
Cc1ccc2cccc(C(=O)NCCOCC3CC3)c2n1,8.844,-13.44
CS(=O)(=O)NCc1noc2c1CN(C(=O)C1CC1)CC2,1.76,10.19
Cc1cccc(N2CCC3(CCN(C(=O)c4cccnc4)CC3)C2)n1,6.875,-
CCc1ccc(CN2CCCn3c(nc(Cn4ccnc4)cc3=O)C2)o1.O=C(O)C(F)(F)F.O=C(O)C(F)(F)F,-,-19.48
[H][C@@]12COC[C@]1([H])[C@@H](OCC)CN2C(=O)c1ccc2c(c1)OCO2,-,1.154
Cc1c(CN(C)C(=O)c2ccnn2C)cnn1C,7.082,1.794
CC(C)N(C)Cc1cnc2n1CCN(Cc1ccc(F)cc1)C2,10.82,-
Cc1nc(C)c(C(=O)N2CCCC(C(=O)c3nccn3C)C2)s1 (configuration not stated),0.625,-28.9
CN(C)C(=O)N1CCN(CCCc2ccccc2)[C@H]2CS(=O)(=O)C[C@H]21,16.48,-
CCN(C(=O)C(C)S(=O)(=O)Cc1nc(C)no1)c1ccccc1 (configuration not stated),19.76,-1.269
CN(C)c1ccc(C(=O)N2CCCc3cc(OC(F)(F)F)ccc32)cn1,5.722,4.967
COc1cccc(-n2nnc(C(=O)N3CCOC(C)C3)c2C)c1 (configuration not stated),13.22,-1.957
CCS(=O)(=O)N1CCCC2(CCCN2C(=O)c2cn(C)cn2)C1 (configuration not stated),6.767,9.025
CC(CS(C)(=O)=O)N(C)C(=O)NCCCc1ccc(Cl)cc1 (configuration not stated),8.355,-29.46
COc1ccsc1C(=O)N1CCCC(n2nc(C)cc2C)C1 (configuration not stated),16.06,-1.95
CN(C)c1ccc(CN(CCCn2ccnc2)Cc2c[nH]cn2)cc1.O=C(O)CC(O)(CC(=O)O)C(=O)O,-,16.53
CCc1ncc(C(=O)NC(C)(C)CC)s1,10.47,17.73
CC(NC(C)(C)CN)c1ccccc1 (configuration not stated),9.192,-32.48
Cc1cnc(C(=O)N2CCN(C(=O)C(C)C)[C@@H]3CS(=O)(=O)C[C@@H]32)cn1,14.89,-
CSCCCN1CCn2nc(CNC(C)=O)cc2C1,3.448,-3.154
CC(=O)N1CCN(CCNc2snc(Cl)c2C#N)CC1,2.507,-25.23
CN(C)C1CCCN(Cc2cccc(Cn3cccn3)c2)CC1 (configuration not stated),13.38,-18.46
Cc1noc(C2CCCN(CC(=O)N3CCNC(=O)C3)C2)n1 (configuration not stated),13.49,-33.08
CCS(=O)(=O)CC(=O)Nc1cc(-c2cccc(F)c2F)n[nH]1,19.2,4.084
O=C(OCCNc1ncccn1)c1ccc(Cl)s1,23.4,4.928
[H][C@]12CC[C@]([H])(CN(Cc3ccc(F)cc3)C1)N(Cc1snnc1C)C2,-,-0.8592
Cc1ccc(CN(Cc2cc(C)no2)C2CC2)cc1,3.226,-16.79
NS(=O)(=O)NCC1(c2ccccc2Br)CC1,14.43,-6.753
CC(C)(C)Cc1nnc(NCc2cccc(C#N)c2)o1,19.35,-3.356
COc1ccc(CNC(=O)c2ccoc2CN2CCNC(=O)C2)cc1,11.21,3.648
CC(C)CCNC(=O)CNC(=O)N1CCc2c([nH]c3ccc(Cl)cc23)C1,14.24,-19.56
Cc1nn(CC(=O)N2CCN(Cc3cnn(C)c3C)CC2)cc1Cl,12.37,2.918
O=C(CCc1nc(Cl)n[nH]1)N1C[C@H](CO)C[C@H](CN2CCCC2)C1,6.301,-0.9334
Fc1ccc(OCC2CCCO2)c(NCc2cn3cccnc3n2)c1 (configuration not stated),-2.174,-0.1346

The first 8 entries again:

{"smiles": "Cc1cc(=O)[nH]c(-n2nc(C3CC3)cc2N)n1", "A": 10.63, "B": 101}
{"smiles": "O=C(Nc1cc(F)ccc1OCC1CCCO1)NC1CC1", "stereo": "configuration not stated", "A": 17.61, "B": -1.03}
{"smiles": "COc1cccc(OC)c1C(=O)NCC(c1cccn1C)N1CCCC1", "stereo": "configuration not stated", "A": 17.44, "B": -10.59}
{"smiles": "Cc1ccc2nc(C3CCCN3C(=O)c3cc(=O)[nH]c(=O)[nH]3)[nH]c2c1", "stereo": "configuration not stated", "A": 5.949, "B": -9.691}
{"smiles": "Cc1nc(C(=O)N2CCN(C(=O)N(C)C)[C@@H]3CS(=O)(=O)C[C@@H]32)cs1", "A": 11.17}
{"smiles": "O=C(COCc1nc(-c2ccncc2)no1)NC1CCCCC1", "A": 14.96, "B": -12.05}
{"smiles": "Cc1oc(C)c(C(=O)NCc2cccnc2)c1C", "A": 12.63, "B": 0.4906}
{"smiles": "O=C1COC2(CCN(c3ncccn3)CC2)CN1", "A": 8.029}